We go through two sequences from publication PMC5453957.

Construct, isoform or probe ends are uncertain for at least one entry. For some of these results: No signal at the amounts used counts as a negative. For some of these results: At least one verdict was read from the data and is not stated in words by the source. For some of these results: At least one result comes from cells or an extract, where the contact may be indirect.

The target in data set [1] is GFP (UniProt P42212). The data set is described as follows: pull-down. The note with it: AS1 buffer; pull-down: AS1 buffer (composition not given), 4 C, or ARGI buffer (50 mM Tris-HCl, 300 mM NaCl, 5 mM EDTA, 0.01% Tween 20, pH 7.5); recombinant protein; label: 5'-biotin (pull-down); single-stranded DNA.
Data set [2] concerns the target GST (UniProt P08515). The data set is described as follows: pull-down. Particulars: AS1 buffer, specificity also confirmed by qPCR (Fig 3); pull-down: AS1 buffer (composition not given), 4 C, or ARGI buffer (50 mM Tris-HCl, 300 mM NaCl, 5 mM EDTA, 0.01% Tween 20, pH 7.5); recombinant protein; label: 5'-biotin (pull-down); single-stranded DNA. A general note: Real-time PCR tracks product formation cycle by cycle.

Data set [3] has as its target PCNA (human) (UniProt P12004). The data set is described as follows: pull-down. The note with it: AS1 buffer; pull-down: AS1 buffer (composition not given), 4 C, or ARGI buffer (50 mM Tris-HCl, 300 mM NaCl, 5 mM EDTA, 0.01% Tween 20, pH 7.5); recombinant protein; label: 5'-biotin (pull-down); single-stranded DNA.
Data set [4] deals with R8-PCNA (E. coli total extract) (human) (UniProt P12004). The data set is described as follows: pull-down (affinity purification). Particulars: ARGI buffer, pull-down: AS1 buffer (composition not given), 4 C, or ARGI buffer (50 mM Tris-HCl, 300 mM NaCl, 5 mM EDTA, 0.01% Tween 20, pH 7.5), protein in a lysate after overexpression, protein details: N-terminal R8, single-stranded DNA.

Regarding “CATGCTTCCCCAGGGAGATGGACGGCACGTCTTTGTAATTGGTTCTGAGTTCCGTTGTGGGAGGAACATGCGTCGCAAAC [24-10 aptamer full length]”, the binding result in data set [1], in data set [2] and in data set [3] was “no binding” in each case.

“CTTTGTAATTGGTTCTGAGTTCCGTTGTGGGAGGAACATG [AR aptamer (24-10 nt 31-70; 5'/-30 and 3'/-10)]”: the binding result in data set [4] is listed as “binds”.
